# Laboratory results taken from the supplement of paper PMC4604168 (melanoma cell lines).
# The list shows a part of the results. Many values rest on one well or one pass, so single values are uncertain.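 The apoptosis fraction was the count of cleaved-PARP antibody-stained nuclei relative to all DNA-stained nuclei, imaged in 1,536-well plates. Screening doses were set so most cells survived, and baseline and induced cleaved-PARP levels vary greatly across cell lines.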
# Legend:
# Assay in all cases: cleaved PARP positive nuclei fraction relative to DMSO control; melanoma cells; higher = more apoptosis
# Details in all cases: library dose: low library concentration; 72 h
# [1] = tested on: COLO792
# [2] = tested on: COLO800
# [3] = tested on: COLO829
# [4] = tested on: G361
# [5] = tested on: IPC-298
# [6] = tested on: IST-MEL1
# [7] = tested on: LB2518-MEL
# [8] = tested on: LOXIMVI
# [9] = tested on: MEL-HO
SMILES,cleaved PARP positive nuclei fraction [1] [%],cleaved PARP positive nuclei fraction [2] [%],cleaved PARP positive nuclei fraction [3] [%],cleaved PARP positive nuclei fraction [4] [%],cleaved PARP positive nuclei fraction [5] [%],cleaved PARP positive nuclei fraction [6] [%],cleaved PARP positive nuclei fraction [7] [%],cleaved PARP positive nuclei fraction [8] [%],cleaved PARP positive nuclei fraction [9] [%]
"C[C@]1(O)C[C@@H](c2nc(-c3ccc4ccc(-c5ccccc5)nc4c3)c3c(N)nccn32)C1 + O=C(O)c1ccc(-c2c[nH]c3ncc(-c4ccccc4)cc23)cc1C1CCCC1 [GSK650394] (first compound 0.4 µM, partner dose 0.16 µM)",45.6,237,164,74.7,47.9,50.1,92.2,70.7,146
"NC1(c2ccc(-c3nc4ccn5c(=O)[nH]nc5c4cc3-c3ccccc3)cc2)CCC1 + C=CCn1c(=O)c2cnc(Nc3ccc(N4CCN(C)CC4)cc3)nc2n1-c1cccc(C(C)(C)O)n1 [MK1775] (first compound 0.4 µM, partner dose 0.02 µM)",161,42.3,133,101,96.7,67.6,109,62.7,161
"Cn1cnc2c(F)c(Nc3ccc(Br)cc3Cl)c(C(=O)NOCCO)cc21 [selumetinib] + CO[C@@H]1[C@H](N(C)C(=O)c2ccccc2)C[C@H]2O[C@]1(C)n1c3ccccc3c3c4c(c5c6ccccc6n2c5c31)C(=O)NC4 [Midostaurin] (first compound 0.015 µM, partner dose 0.08 µM)",147,24,101,187,116,1000,138,17.2,75.5
"CC(=O)O[C@@]12CO[C@@H]1C[C@H](O)[C@@]1(C)C(=O)[C@H](O)C3=C(C)[C@@H](OC(=O)[C@H](O)[C@@H](NC(=O)OC(C)(C)C)c4ccccc4)C[C@@](O)([C@@H](OC(=O)c4ccccc4)[C@H]21)C3(C)C [Docetaxel] + Cc1cc(N2CCOCC2)cc2[nH]c(-c3c(NC[C@@H](O)c4cccc(Cl)c4)cc[nH]c3=O)nc12 [BMS536924] (first compound 0.0001 µM, partner dose 0.2 µM)",608,308,262,758,69.6,253,292,250,325
"NC1(c2ccc(-c3nc4ccn5c(=O)[nH]nc5c4cc3-c3ccccc3)cc2)CCC1 + O=C(O)c1ccc(-c2c[nH]c3ncc(-c4ccccc4)cc23)cc1C1CCCC1 [GSK650394] (first compound 0.4 µM, partner dose 0.16 µM)",314,155,166,105,99.1,35.1,41.8,68.1,83.8
"C[C@@H](N)c1ccc(C(=O)Nc2ccnc3[nH]ccc23)cc1 + OCCn1cc(-c2cnc3nnn(Cc4ccc5ncccc5c4)c3n2)cn1 [PF04217903] (first compound 0.4 µM, partner dose 1 µM)",124,22.7,54.7,93.3,58.1,34.5,163,219,43.6
"C[C@]1(O)C[C@@H](c2nc(-c3ccc4ccc(-c5ccccc5)nc4c3)c3c(N)nccn32)C1 + C=CCn1c(=O)c2cnc(Nc3ccc(N4CCN(C)CC4)cc3)nc2n1-c1cccc(C(C)(C)O)n1 [MK1775] (first compound 0.4 µM, partner dose 0.02 µM)",162,44.7,117,52.8,113,186,58,157,132
"Cn1cnc2c(F)c(Nc3ccc(Br)cc3Cl)c(C(=O)NOCCO)cc21 [selumetinib] + CC(C)(C)c1cnc(CSc2cnc(NC(=O)C3CCNCC3)s2)o1 [SNS-032] (first compound 0.015 µM, partner dose 0.01 µM)",113,112,75.6,55.4,59.4,105,330,84.9,127
"C[C@]1(O)C[C@@H](c2nc(-c3ccc4ccc(-c5ccccc5)nc4c3)c3c(N)nccn32)C1 + CC1(C)NC(=O)N(c2ccc([N+](=O)[O-])c(C(F)(F)F)c2)C1=O [nilutamide] (first compound 0.4 µM, partner dose 1 µM)",111,79.5,187,53.5,47.5,85.7,104,96.1,124
"CC1(C)CCC(c2ccc(Cl)cc2)=C(CN2CCN(c3ccc(C(=O)NS(=O)(=O)c4ccc(N[C@H](CCN5CCOCC5)CSc5ccccc5)c(S(=O)(=O)C(F)(F)F)c4)cc3)CC2)C1 + O=C(CCCCCCC(=O)Nc1ccccc1)NO [vorinostat] (first compound 0.4 µM, partner dose 0.08 µM)",504,35.1,269,143,135,237,170,178,85.6
"CCCCCCCCc1ccc(CCC(N)(CO)CO)cc1 [fingolimod] + C[C@@H]1CCN(C(=O)CC#N)C[C@@H]1N(C)c1ncnc2[nH]ccc12 [CP690550] (first compound 2 µM, partner dose 1 µM)",52.1,125,65.3,113,42.6,103,85,131,135
"CCCCCCCCc1ccc(CCC(N)(CO)CO)cc1 [fingolimod] + CC1(C)NC(=O)N(c2ccc([N+](=O)[O-])c(C(F)(F)F)c2)C1=O [nilutamide] (first compound 2 µM, partner dose 1 µM)",122,198,67.2,124,85.6,60.6,81.5,35.7,76.5
"NC1(c2ccc(-c3nc4ccn5c(=O)[nH]nc5c4cc3-c3ccccc3)cc2)CCC1 + COc1cc(Nc2ncc(F)c(Nc3ccc4c(n3)NC(=O)C(C)(C)O4)n2)cc(OC)c1OC [Tamatinib] (first compound 0.4 µM, partner dose 0.4 µM)",817,62.1,147,136,116,105,106,94.2,33.1
"CCCCCCCCc1ccc(CCC(N)(CO)CO)cc1 [fingolimod] + COc1cc2c(Oc3ccc4[nH]c(C)cc4c3F)ncnc2cc1OCCCN1CCCC1 [cediranib] (first compound 2 µM, partner dose 0.4 µM)",90.8,142,77.6,121,42.6,97.7,51.2,111,44.5
"CC(=O)O[C@@]12CO[C@@H]1C[C@H](O)[C@@]1(C)C(=O)[C@H](O)C3=C(C)[C@@H](OC(=O)[C@H](O)[C@@H](NC(=O)OC(C)(C)C)c4ccccc4)C[C@@](O)([C@@H](OC(=O)c4ccccc4)[C@H]21)C3(C)C [Docetaxel] + OCCn1cc(-c2cnc3nnn(Cc4ccc5ncccc5c4)c3n2)cn1 [PF04217903] (first compound 0.0001 µM, partner dose 1 µM)",426,458,264,484,313,55.1,176,193,235

# Some of the entries so far, with bars between the fields.
SMILES | cleaved PARP positive nuclei fraction [1] [%] | cleaved PARP positive nuclei fraction [2] [%] | cleaved PARP positive nuclei fraction [3] [%] | cleaved PARP positive nuclei fraction [4] [%] | cleaved PARP positive nuclei fraction [5] [%] | cleaved PARP positive nuclei fraction [6] [%] | cleaved PARP positive nuclei fraction [7] [%] | cleaved PARP positive nuclei fraction [8] [%] | cleaved PARP positive nuclei fraction [9] [%]
Cn1cnc2c(F)c(Nc3ccc(Br)cc3Cl)c(C(=O)NOCCO)cc21 [selumetinib] + CO[C@@H]1[C@H](N(C)C(=O)c2ccccc2)C[C@H]2O[C@]1(C)n1c3ccccc3c3c4c(c5c6ccccc6n2c5c31)C(=O)NC4 [Midostaurin] (first compound 0.015 µM, partner dose 0.08 µM) | 147 | 24 | 101 | 187 | 116 | 1000 | 138 | 17.2 | 75.5
CCCCCCCCc1ccc(CCC(N)(CO)CO)cc1 [fingolimod] + C[C@@H]1CCN(C(=O)CC#N)C[C@@H]1N(C)c1ncnc2[nH]ccc12 [CP690550] (first compound 2 µM, partner dose 1 µM) | 52.1 | 125 | 65.3 | 113 | 42.6 | 103 | 85 | 131 | 135
